Results taken from the supplement of paper PMC10849652.
The other results are listed elsewhere or left out.

The chains behind the UniProt entries cited, without tags or fusion partners. Where a name states a change or a piece, a line headed by the entry shows the natural chain unless it says otherwise.
UniProt Q13794: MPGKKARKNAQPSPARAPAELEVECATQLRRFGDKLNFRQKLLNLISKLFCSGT
UniProt Q9UNP9: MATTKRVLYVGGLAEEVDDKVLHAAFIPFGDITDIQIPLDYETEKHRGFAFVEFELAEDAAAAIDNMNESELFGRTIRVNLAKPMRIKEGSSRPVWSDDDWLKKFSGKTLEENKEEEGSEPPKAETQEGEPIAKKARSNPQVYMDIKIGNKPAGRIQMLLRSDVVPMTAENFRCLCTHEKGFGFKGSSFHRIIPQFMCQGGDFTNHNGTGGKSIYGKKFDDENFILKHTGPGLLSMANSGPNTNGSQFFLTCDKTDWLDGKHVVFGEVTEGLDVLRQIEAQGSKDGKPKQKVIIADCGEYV
UniProt Q8NBL1: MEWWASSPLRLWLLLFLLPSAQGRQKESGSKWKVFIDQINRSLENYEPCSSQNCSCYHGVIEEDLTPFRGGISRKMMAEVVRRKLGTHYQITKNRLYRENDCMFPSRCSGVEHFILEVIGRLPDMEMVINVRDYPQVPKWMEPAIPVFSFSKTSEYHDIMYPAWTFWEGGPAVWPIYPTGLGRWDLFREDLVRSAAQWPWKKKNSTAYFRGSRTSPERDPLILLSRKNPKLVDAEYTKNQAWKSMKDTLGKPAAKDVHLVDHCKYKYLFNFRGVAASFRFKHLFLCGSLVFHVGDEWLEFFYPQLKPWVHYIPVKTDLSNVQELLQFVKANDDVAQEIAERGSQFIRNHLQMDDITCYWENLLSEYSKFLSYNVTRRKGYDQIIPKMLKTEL
UniProt Q96AD5: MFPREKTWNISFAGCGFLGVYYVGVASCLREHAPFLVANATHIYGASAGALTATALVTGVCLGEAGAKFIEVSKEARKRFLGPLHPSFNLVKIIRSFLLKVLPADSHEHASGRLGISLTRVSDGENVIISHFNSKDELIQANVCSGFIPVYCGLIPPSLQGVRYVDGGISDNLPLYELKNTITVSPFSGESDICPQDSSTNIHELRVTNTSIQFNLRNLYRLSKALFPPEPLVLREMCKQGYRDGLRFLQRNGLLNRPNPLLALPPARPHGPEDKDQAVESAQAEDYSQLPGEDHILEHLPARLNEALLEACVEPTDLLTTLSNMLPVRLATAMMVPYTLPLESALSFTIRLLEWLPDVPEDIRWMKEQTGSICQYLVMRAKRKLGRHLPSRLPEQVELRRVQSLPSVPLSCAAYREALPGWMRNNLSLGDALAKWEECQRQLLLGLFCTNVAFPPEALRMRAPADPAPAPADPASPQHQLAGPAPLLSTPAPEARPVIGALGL
UniProt O15162: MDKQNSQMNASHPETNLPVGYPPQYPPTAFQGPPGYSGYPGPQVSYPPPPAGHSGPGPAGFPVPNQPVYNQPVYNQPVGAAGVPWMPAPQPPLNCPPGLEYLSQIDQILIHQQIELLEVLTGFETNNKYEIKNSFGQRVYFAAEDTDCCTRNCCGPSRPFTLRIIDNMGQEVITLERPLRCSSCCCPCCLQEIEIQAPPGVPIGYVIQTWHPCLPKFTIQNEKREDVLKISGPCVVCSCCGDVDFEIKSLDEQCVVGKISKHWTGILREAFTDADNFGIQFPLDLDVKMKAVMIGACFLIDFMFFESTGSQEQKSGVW
UniProt O95602, whole entry, looked up: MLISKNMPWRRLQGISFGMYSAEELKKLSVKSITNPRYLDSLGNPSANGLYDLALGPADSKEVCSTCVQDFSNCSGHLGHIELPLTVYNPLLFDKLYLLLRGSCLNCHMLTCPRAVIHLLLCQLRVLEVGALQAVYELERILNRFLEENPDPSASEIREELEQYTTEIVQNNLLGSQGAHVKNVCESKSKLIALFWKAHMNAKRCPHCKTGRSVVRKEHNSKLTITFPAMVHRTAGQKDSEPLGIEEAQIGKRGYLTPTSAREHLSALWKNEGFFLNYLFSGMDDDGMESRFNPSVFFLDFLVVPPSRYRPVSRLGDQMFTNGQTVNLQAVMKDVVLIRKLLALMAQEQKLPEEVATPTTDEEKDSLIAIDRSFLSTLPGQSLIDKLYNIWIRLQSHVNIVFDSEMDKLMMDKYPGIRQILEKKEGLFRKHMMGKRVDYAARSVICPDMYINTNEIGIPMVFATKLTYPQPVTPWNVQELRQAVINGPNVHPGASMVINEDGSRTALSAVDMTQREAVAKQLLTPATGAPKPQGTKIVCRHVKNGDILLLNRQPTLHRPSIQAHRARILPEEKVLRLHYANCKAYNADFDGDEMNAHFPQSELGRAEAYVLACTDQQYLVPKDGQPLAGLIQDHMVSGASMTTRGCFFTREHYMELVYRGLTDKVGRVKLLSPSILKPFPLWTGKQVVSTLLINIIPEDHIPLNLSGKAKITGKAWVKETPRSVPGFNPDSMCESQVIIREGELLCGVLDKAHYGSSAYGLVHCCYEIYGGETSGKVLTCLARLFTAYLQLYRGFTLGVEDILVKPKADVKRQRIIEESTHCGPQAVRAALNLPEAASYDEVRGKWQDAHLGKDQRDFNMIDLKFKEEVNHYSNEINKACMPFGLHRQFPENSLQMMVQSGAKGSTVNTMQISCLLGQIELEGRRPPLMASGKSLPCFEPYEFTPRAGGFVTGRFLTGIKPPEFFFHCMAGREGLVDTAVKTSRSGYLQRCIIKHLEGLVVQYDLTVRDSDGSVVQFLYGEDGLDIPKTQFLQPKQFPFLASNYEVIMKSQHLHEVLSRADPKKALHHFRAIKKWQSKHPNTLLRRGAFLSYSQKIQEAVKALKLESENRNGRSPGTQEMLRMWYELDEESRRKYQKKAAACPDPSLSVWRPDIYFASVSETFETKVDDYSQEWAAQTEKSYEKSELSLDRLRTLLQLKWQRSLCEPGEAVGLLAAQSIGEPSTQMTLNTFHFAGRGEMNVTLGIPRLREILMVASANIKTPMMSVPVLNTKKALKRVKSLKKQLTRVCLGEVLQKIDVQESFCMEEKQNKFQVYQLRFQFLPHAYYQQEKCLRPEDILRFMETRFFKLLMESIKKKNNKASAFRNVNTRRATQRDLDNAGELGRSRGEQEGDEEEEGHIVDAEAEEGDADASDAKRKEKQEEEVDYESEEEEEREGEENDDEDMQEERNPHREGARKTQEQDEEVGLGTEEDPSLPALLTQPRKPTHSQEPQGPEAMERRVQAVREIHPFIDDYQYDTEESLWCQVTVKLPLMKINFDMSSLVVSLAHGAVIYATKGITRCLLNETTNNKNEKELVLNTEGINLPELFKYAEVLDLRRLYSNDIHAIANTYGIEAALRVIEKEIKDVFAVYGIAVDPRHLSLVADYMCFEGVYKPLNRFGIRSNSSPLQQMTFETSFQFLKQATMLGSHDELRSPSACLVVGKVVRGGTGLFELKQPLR
UniProt Q9H5K3: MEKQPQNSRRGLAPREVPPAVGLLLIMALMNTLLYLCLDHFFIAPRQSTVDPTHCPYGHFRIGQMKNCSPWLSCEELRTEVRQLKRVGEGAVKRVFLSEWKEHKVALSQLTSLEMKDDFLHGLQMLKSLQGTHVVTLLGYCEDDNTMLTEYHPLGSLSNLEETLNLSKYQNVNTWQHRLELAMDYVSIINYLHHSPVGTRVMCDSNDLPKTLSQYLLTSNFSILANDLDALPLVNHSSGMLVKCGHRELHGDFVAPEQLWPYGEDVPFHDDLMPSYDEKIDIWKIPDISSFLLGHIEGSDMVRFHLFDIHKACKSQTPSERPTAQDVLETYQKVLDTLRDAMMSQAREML
UniProt Q9H2U2: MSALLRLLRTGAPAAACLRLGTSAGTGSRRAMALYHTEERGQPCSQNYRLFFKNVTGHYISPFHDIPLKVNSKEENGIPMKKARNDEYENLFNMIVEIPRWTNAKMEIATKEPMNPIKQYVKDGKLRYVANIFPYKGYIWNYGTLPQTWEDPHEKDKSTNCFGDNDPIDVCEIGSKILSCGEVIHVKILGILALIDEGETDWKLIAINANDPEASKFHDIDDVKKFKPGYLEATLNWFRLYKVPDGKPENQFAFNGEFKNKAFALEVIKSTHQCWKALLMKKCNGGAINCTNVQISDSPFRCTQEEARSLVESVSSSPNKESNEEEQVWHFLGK
UniProt Q9NRF9: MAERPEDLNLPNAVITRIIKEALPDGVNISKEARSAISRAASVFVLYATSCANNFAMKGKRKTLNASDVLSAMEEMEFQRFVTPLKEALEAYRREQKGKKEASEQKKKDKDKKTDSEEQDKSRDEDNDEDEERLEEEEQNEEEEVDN
UniProt Q9Y2S7: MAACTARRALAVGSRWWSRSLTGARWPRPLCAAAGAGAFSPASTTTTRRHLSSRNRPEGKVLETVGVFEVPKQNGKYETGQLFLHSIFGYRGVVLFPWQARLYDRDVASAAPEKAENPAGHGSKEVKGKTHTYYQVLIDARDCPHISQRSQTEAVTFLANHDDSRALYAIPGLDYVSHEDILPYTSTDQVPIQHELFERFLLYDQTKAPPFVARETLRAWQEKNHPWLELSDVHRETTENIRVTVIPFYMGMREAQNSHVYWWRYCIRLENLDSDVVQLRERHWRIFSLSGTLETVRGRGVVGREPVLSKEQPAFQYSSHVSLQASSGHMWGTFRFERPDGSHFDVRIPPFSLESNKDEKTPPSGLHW
UniProt Q8N490: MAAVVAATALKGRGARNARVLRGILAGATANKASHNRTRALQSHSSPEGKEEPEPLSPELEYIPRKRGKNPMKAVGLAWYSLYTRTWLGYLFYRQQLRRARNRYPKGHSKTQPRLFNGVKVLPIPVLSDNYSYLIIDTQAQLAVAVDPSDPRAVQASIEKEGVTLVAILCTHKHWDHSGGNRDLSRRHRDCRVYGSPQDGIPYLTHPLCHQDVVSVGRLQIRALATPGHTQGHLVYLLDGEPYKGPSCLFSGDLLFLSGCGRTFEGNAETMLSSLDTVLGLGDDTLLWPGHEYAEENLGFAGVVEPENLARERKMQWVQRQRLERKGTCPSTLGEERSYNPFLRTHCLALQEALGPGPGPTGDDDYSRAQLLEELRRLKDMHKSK
UniProt Q9NZ53: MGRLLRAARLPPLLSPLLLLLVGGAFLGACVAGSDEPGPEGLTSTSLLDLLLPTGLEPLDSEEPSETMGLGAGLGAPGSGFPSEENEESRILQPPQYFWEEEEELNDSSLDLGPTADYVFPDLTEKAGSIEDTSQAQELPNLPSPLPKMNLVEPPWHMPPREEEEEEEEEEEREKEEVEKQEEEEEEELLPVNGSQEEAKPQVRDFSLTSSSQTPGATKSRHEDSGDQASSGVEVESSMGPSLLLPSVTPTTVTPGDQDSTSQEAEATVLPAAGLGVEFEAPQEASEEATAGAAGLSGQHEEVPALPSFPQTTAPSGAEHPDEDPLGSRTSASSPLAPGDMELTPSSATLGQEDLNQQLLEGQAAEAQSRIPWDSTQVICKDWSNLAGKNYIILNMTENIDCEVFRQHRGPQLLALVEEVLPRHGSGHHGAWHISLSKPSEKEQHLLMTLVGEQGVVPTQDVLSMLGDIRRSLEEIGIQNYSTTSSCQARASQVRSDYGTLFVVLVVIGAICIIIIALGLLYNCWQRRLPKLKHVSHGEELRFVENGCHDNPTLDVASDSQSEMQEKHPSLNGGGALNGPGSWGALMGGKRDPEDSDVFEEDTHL
UniProt Q9NQ55: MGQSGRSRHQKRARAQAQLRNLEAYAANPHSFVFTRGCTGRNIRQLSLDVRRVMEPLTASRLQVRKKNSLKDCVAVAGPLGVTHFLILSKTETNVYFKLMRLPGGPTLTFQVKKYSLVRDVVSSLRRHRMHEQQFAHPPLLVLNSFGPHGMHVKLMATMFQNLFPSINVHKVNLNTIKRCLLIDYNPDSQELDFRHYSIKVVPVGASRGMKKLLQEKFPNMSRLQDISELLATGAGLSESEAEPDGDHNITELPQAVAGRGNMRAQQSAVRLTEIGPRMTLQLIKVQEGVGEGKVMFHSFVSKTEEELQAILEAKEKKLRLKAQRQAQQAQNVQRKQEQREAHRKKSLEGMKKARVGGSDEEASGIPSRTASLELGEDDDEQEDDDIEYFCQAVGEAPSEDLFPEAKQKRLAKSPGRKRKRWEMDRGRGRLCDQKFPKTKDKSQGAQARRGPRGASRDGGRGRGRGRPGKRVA
UniProt Q14651: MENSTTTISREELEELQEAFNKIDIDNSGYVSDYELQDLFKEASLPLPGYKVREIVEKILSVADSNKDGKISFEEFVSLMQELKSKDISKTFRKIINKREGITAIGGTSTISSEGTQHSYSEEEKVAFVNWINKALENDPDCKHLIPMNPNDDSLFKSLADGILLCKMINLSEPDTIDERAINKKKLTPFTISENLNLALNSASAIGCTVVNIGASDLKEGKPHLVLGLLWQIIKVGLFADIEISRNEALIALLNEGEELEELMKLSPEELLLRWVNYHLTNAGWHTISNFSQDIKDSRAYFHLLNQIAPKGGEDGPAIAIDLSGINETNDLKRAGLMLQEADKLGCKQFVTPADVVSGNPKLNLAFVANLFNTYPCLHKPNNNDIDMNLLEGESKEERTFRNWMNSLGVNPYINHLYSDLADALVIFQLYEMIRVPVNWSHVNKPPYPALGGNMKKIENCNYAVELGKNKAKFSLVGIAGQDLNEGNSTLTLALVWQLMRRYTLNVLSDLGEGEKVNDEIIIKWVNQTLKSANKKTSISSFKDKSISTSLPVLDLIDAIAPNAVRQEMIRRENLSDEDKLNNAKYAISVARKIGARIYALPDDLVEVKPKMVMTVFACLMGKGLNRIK

Key:
Experiment in all cases: log2 fold change, soluble protein after heating vs DMSO (PISA); higher = thermal stabilisation; K562 cells, 10 uM, 30 min; active = over 0.2 and 3.5 SD of the protein, either way, in both replicates (recomputed)
bafetinib = compound: Cc1ccc(NC(=O)c2ccc(CN3CC[C@H](N(C)C)C3)c(C(F)(F)F)c2)cc1Nc1nccc(-c2cncnc2)n1 [bafetinib]
In short: (§1)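 K562 cells (2×10^6 cells/mL) were treated with 10 μM compound for 30 min, and aliquots were heated for 3 min over 48°C-58°C. Pooled aliquots were extracted in PBS with 0.5% NP-40 at 4°C, and the supernatant after 21,000xg for 90 min was measured by TMTpro 16plex LC-MS/MS with channel sums equalised. Reported thermal stability, relative to control samples and from duplicates, is a log2 fold change.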

[1] = compound: Cc1cccc(CC(=O)N2CCc3c2ccc(-c2cn(C)c4ncnc(N)c24)c3F)n1
In short: as §1

nilotinib = compound: Cc1cn(-c2cc(NC(=O)c3ccc(C)c(Nc4nccc(-c5cccnc5)n4)c3)cc(C(F)(F)F)c2)cn1 [nilotinib]
In short: as §1

[2] = compound: Cc1nc(Nc2n[nH]c3c2CN(C(=O)N[C@H](CN(C)C)c2ccccc2)C3(C)C)c2sccc2n1
In short: as §1

dasatinib = compound: Cc1nc(Nc2ncc(C(=O)Nc3c(C)cccc3Cl)s2)cc(N2CCN(CCO)CC2)n1 [dasatinib]
In short: as §1

[3] = compound: Cc1ncc(-c2ccnc(Nc3ccc(S(C)(=O)=O)cc3)n2)n1C(C)C
In short: as §1

[4] = compound: Cn1cc(-c2ccc3c(c2)CCN3C(=O)Cc2cccc(C(F)(F)F)c2)c2c(N)ncnc21
In short: as §1

[5] = compound: Cn1cc(-c2ccc3nnc(C(F)(F)c4ccc5ncccc5c4)n3n2)cn1
In short: as §1

tipifarnib = compound: Cn1cncc1[C@@](N)(c1ccc(Cl)cc1)c1ccc2c(c1)c(-c1cccc(Cl)c1)cc(=O)n2C [tipifarnib]
In short: as §1

mubritinib = compound: FC(F)(F)c1ccc(/C=C/c2nc(COc3ccc(CCCCn4ccnn4)cc3)co2)cc1 [mubritinib]
In short: as §1

[6] = compound: NC(=O)Nc1cc(-c2cccc(F)c2)sc1C(=O)N[C@H]1CCCNC1
In short: as §1

[7] = compound: NC(=O)c1cnc(N[C@@H]2CCCC[C@@H]2N)nc1Nc1cccc(-n2nccn2)c1
In short: as §1

[8] = compound: NC1(c2ccc(-c3nc4ccn5c(=O)[nH]nc5c4cc3-c3ccccc3)cc2)CCC1
In short: as §1

[9] = compound: NCC(=O)Nc1ccc(-n2nc(C(F)(F)F)cc2-c2ccc3c(ccc4ccccc43)c2)cc1
In short: as §1

entinostat = compound: Nc1ccccc1NC(=O)c1ccc(CNC(=O)OCc2cccnc2)cc1 [entinostat]
In short: as §1

vorinostat = compound: O=C(CCCCCCC(=O)Nc1ccccc1)NO [vorinostat]
In short: as §1

citarinostat = compound: O=C(CCCCCCNC(=O)c1cnc(N(c2ccccc2)c2ccccc2Cl)nc1)NO [citarinostat]
In short: as §1

silmitasertib = compound: O=C(O)c1ccc2c(c1)nc(Nc1cccc(Cl)c1)c1ccncc12 [silmitasertib]
In short: as §1

[10] = compound: O=C1NC(=O)C(c2cnc3ccccn23)=C1c1cn2c3c(cc(F)cc13)CN(C(=O)N1CCCCC1)CC2
In short: as §1

[11] = compound: c1cc(OCCN2CCCCC2)cc(-c2n[nH]c3ccc(-c4nnc[nH]4)cc23)c1
In short: as §1

Measured: log2 fold change

PMAIP1 (UniProt Q13794)
inactive: bafetinib -0.24 | [1] -0.122 | nilotinib -0.289 | [2] -0.002 | dasatinib -0.146 | [3] 0.041 | [4] 0.107 | [5] -0.052 | tipifarnib 0.17 | mubritinib 0.071 | [6] -0.295 | [7] -0.461 | [8] -0.094 | [9] -0.2 | entinostat 0.102 | vorinostat -0.021 | citarinostat -0.044 | silmitasertib -0.044 | [10] -0.388 | [11] -0.257

PPIE (UniProt Q9UNP9)
inactive: bafetinib -0.084 | [1] 0.006 | nilotinib -0.019 | [2] -0.103 | dasatinib 0.029 | [3] 0 | [4] -0.034 | [5] 0.044 | tipifarnib 0.08 | mubritinib 0.056 | [6] -0.136 | [7] -0.025 | [8] -0.026 | [9] -0.01 | entinostat -0.032 | vorinostat -0.023 | citarinostat 0.11 | silmitasertib 0.076 | [10] -0.038 | [11] 0.011

POGLUT1 (UniProt Q8NBL1)
inactive: bafetinib 0.009 | [1] 0.122 | nilotinib -0.001 | [2] 0.03 | dasatinib 0.024 | [3] -0.049 | [4] -0.022 | [5] -0.073 | tipifarnib 0.048 | mubritinib -0.046 | [6] -0.043 | [7] -0.057 | [8] -0.008 | [9] -0.102 | entinostat -0.01 | vorinostat 0.112 | citarinostat -0.058 | silmitasertib 0 | [10] 0.019 | [11] -0.05

PNPLA2 (UniProt Q96AD5)
inactive: bafetinib 0.084 | [1] -0.334 | nilotinib 0.049 | [2] -0.112 | dasatinib -0.113 | [3] -0.118 | [4] 0.056 | [5] 0.049 | tipifarnib -0.026 | mubritinib 0.113 | [6] -0.075 | [7] -0.01 | [8] -0.05 | [9] -0.004 | entinostat 0.078 | vorinostat 0.192 | citarinostat 0.087 | silmitasertib 0.065 | [10] 0.012 | [11] -0.138

PLSCR1 (UniProt O15162)
inactive: bafetinib 0.011 | [1] 0.002 | nilotinib -0.004 | [2] -0.022 | dasatinib 0.052 | [3] -0.032 | [4] 0.024 | [5] 0.048 | tipifarnib 0.036 | mubritinib 0.148 | [6] -0.092 | [7] -0.005 | [8] -0.111 | [9] -0.068 | entinostat -0.212 | vorinostat -0.082 | citarinostat 0.05 | silmitasertib 0.022 | [10] -0.081 | [11] -0.096

Fetched one by one from the list above (2):
PLSCR1 (UniProt O15162)
inactive: bafetinib 0.011 | [1] 0.002 | nilotinib -0.004 | [2] -0.022 | dasatinib 0.052 | [3] -0.032 | [4] 0.024 | [5] 0.048 | tipifarnib 0.036 | mubritinib 0.148 | [6] -0.092 | [7] -0.005 | [8] -0.111 | [9] -0.068 | entinostat -0.212 | vorinostat -0.082 | citarinostat 0.05 | silmitasertib 0.022 | [10] -0.081 | [11] -0.096

PNPLA2 (UniProt Q96AD5)
inactive: bafetinib 0.084 | [1] -0.334 | nilotinib 0.049 | [2] -0.112 | dasatinib -0.113 | [3] -0.118 | [4] 0.056 | [5] 0.049 | tipifarnib -0.026 | mubritinib 0.113 | [6] -0.075 | [7] -0.01 | [8] -0.05 | [9] -0.004 | entinostat 0.078 | vorinostat 0.192 | citarinostat 0.087 | silmitasertib 0.065 | [10] 0.012 | [11] -0.138

Next entries follow.

POLR1A (UniProt O95602)
inactive: bafetinib -0.11 | [1] 0.004 | nilotinib -0.051 | [2] 0.046 | dasatinib 0.046 | [3] -0.003 | [4] -0.16 | [5] -0.057 | tipifarnib 0.019 | mubritinib 0.069 | [6] 0.044 | [7] 0.012 | [8] -0.208 | [9] 0.172 | entinostat -0.012 | vorinostat 0.098 | citarinostat 0.018 | silmitasertib 0.033 | [10] 0.036 | [11] 0.045

POMK (UniProt Q9H5K3)
inactive: bafetinib -0.057 | [1] 0.067 | nilotinib -0.032 | [2] -0.029 | dasatinib -0.05 | [3] 0.016 | [4] 0 | [5] 0.034 | tipifarnib -0.044 | mubritinib -0.126 | [6] 0 | [7] 0.058 | [8] -0.173 | [9] -0.044 | entinostat 0.045 | vorinostat 0.04 | citarinostat 0.105 | silmitasertib 0.101 | [10] 0.017 | [11] -0.303

PPA2 (UniProt Q9H2U2)
inactive: bafetinib 0.004 | [1] -0.009 | nilotinib -0.016 | [2] 0.082 | dasatinib 0.013 | [3] -0.012 | [4] 0.067 | [5] 0.003 | tipifarnib -0.01 | mubritinib 0.014 | [6] -0.023 | [7] -0.013 | [8] -0.055 | [9] -0.029 | entinostat -0.002 | vorinostat -0.017 | citarinostat 0.041 | silmitasertib -0.025 | [10] -0.037 | [11] -0.032

POFUT1 (UniProt Q9H488)
inactive: bafetinib -0.023 | [1] 0 | nilotinib 0.039 | [2] 0.016 | dasatinib 0.049 | [3] -0.008 | [4] -0.068 | [5] -0.065 | tipifarnib 0.049 | mubritinib -0.017 | [6] -0.015 | [7] -0.033 | [8] -0.032 | [9] 0.087 | entinostat -0.009 | vorinostat -0.011 | citarinostat 0.021 | silmitasertib 0.022 | [10] -0.003 | [11] -0.08

POLE3 (UniProt Q9NRF9)
inactive: bafetinib 0.023 | [1] 0 | nilotinib -0.013 | [2] -0.035 | dasatinib -0.014 | [3] -0.023 | [4] -0.021 | [5] 0.024 | tipifarnib 0.018 | mubritinib 0.044 | [6] 0.015 | [7] -0.001 | [8] -0.045 | [9] -0.091 | entinostat 0 | vorinostat -0.04 | citarinostat 0.019 | silmitasertib -0.014 | [10] -0.062 | [11] 0.245

POLDIP2 (UniProt Q9Y2S7)
inactive: bafetinib -0.007 | [1] -0.038 | nilotinib -0.02 | [2] -0.047 | dasatinib -0.076 | [3] -0.011 | [4] 0.012 | [5] -0.034 | tipifarnib 0.002 | mubritinib 0.044 | [6] -0.024 | [7] -0.074 | [8] -0.125 | [9] -0.058 | entinostat -0.005 | vorinostat 0.008 | citarinostat 0.046 | silmitasertib 0.016 | [10] -0.112 | [11] -0.032

POFUT2 (UniProt Q9Y2G5)
inactive: bafetinib 0.007 | [1] -0.007 | nilotinib -0.039 | [2] 0.055 | dasatinib 0.137 | [3] -0.024 | [4] -0.033 | [5] 0.031 | tipifarnib 0.05 | mubritinib -0.057 | [6] -0.013 | [7] 0.001 | [8] -0.052 | [9] 0.033 | entinostat 0.024 | vorinostat -0.052 | citarinostat 0.014 | silmitasertib 0.011 | [10] 0 | [11] -0.049

PNKD isoform 2 (UniProt Q8N490)
inactive: bafetinib -0.05 | [1] -0.038 | nilotinib -0.011 | [2] -0.01 | dasatinib -0.065 | [3] -0.003 | [4] 0.017 | [5] 0.152 | tipifarnib 0.041 | mubritinib 0.014 | [6] -0.047 | [7] -0.083 | [8] 0.049 | [9] -0.016 | entinostat -0.031 | vorinostat 0.025 | citarinostat 0.062 | silmitasertib -0.166 | [10] -0.178 | [11] 0.016

PODXL2 (UniProt Q9NZ53)
inactive: bafetinib -0.115 | [1] -0.071 | nilotinib 0.14 | [2] -0.015 | dasatinib -0.088 | [3] 0.111 | [4] -0.107 | [5] 0.069 | tipifarnib 0.062 | mubritinib 0.026 | [6] -0.011 | [7] 0.024 | [8] -0.088 | [9] 0.03 | entinostat 0.131 | vorinostat -0.072 | citarinostat 0.03 | silmitasertib 0.057 | [10] 0 | [11] -0.168

PPAN isoform 3 (UniProt Q9NQ55)
inactive: bafetinib 0.312 | [1] -0.052 | nilotinib -0.127 | [2] 0.081 | dasatinib 0.094 | [3] -0.068 | [4] -0.424 | [5] -0.272 | tipifarnib 0.186 | mubritinib -0.02 | [6] -0.18 | [7] 0.106 | [8] 0.026 | [9] 0.06 | entinostat -0.205 | vorinostat 0.084 | citarinostat 0.009 | silmitasertib 0.237 | [10] 0.347 | [11] -0.199

PLS1 (UniProt Q14651)
inactive: bafetinib -0.012 | [1] 0.05 | nilotinib -0.011 | [2] -0.076 | dasatinib -0.088 | [3] -0.002 | [4] 0.017 | [5] 0.008 | tipifarnib -0.083 | mubritinib 0.105 | [6] -0.046 | [7] -0.053 | [8] -0.114 | [9] -0.064 | entinostat -0.008 | vorinostat 0.037 | citarinostat -0.034 | silmitasertib 0.041 | [10] -0.024 | [11] -0.01
